Results deposited as PubChem BioAssay AID1224830 (NIAID, 2016).

- Assay: 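Host factors that control LPS-induced TNF expression in human macrophages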 (primary screen)
- Cell system: human THP-1 monocytic leukaemia cells, TNF dual-luciferase reporter clone, PMA-differentiated to macrophage-like cells
- Reagents: siRNA pool against human genes, 50 nM
- Time to read-out: LPS for 4 h, given about 3 days after siRNA transfection
- Treatment: bacterial LPS (TLR4 ligand), 10 ng/ml
- Detection: 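TNF firefly reporter luminescence divided by renilla, normalised to the plate median, then turned into a robust z-score for each replicate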
- Reading the numbers: TNF reporter robust z-score: higher = stronger TNF reporter response to LPS
- Hit rule: 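Each well counts as active if its z-score is over 2.8 or under -1.5; controls are left without a call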
This is an unselected part of about 18,000 reagents. In the full data, about 2,900 (16%) were called active. 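Calls are made per well; low scores hint the gene aids the LPS response, high scores that it dampens it.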 A number with no mark means an inactive call. Repeated entries: four replicate wells of each siRNA pool.

Depletion of HADHB gave: TNF reporter robust z-score -0.39.
For HADHB, the values are TNF reporter robust z-score -0.91.
For HADHB, the entry reads TNF reporter robust z-score -1.24.
For HADHB, the values are TNF reporter robust z-score -0.4.
Depletion of ZNF177 resulted in: TNF reporter robust z-score -0.14.
ZNF177 gave TNF reporter robust z-score 0.19.
Against ZNF177 the deposit lists TNF reporter robust z-score -0.24.
Against ZNF177, the entry reads TNF reporter robust z-score 0.14.
Against PPWD1 the deposit lists TNF reporter robust z-score -0.68.
After knock-down of PPWD1, the record shows TNF reporter robust z-score -0.2.
With knock-down of PPWD1, the screen gave TNF reporter robust z-score -0.58.
Depletion of PPWD1 gave: TNF reporter robust z-score 0.01.
Depletion of FAM199X came out at: TNF reporter robust z-score -0.86.
For FAM199X the deposit lists TNF reporter robust z-score -0.96.
Depletion of FAM199X came out at: TNF reporter robust z-score -0.85.
For FAM199X, the values are TNF reporter robust z-score -1.16.
For DEGS1, the values are TNF reporter robust z-score -0.65.
With knock-down of DEGS1, the screen gave TNF reporter robust z-score 0.02.
DEGS1 showed TNF reporter robust z-score -0.91.
After knock-down of DEGS1 the results were TNF reporter robust z-score 0.
Against LRRK1, the entry reads TNF reporter robust z-score 0.92.
LRRK1 scored TNF reporter robust z-score 1.35.
For LRRK1 the deposit lists TNF reporter robust z-score 0.04.
With knock-down of LRRK1, the screen gave TNF reporter robust z-score -0.6.
CACNG5 showed TNF reporter robust z-score 1.07.
CACNG5 showed TNF reporter robust z-score 1.56.
Against CACNG5, the values are TNF reporter robust z-score 1.79.
With knock-down of CACNG5 the results were TNF reporter robust z-score 1.41.
After knock-down of TMA16, the record shows TNF reporter robust z-score 0.24.
After knock-down of TMA16, the record shows TNF reporter robust z-score 0.66.
Against TMA16, the values are TNF reporter robust z-score 0.61.
Silencing of TMA16 gave: TNF reporter robust z-score 0.95.
Depletion of STK38L came out at: TNF reporter robust z-score -0.61.
Against STK38L the deposit lists TNF reporter robust z-score 2.41.
STK38L gave TNF reporter robust z-score 1.57.
Depletion of STK38L came out at: TNF reporter robust z-score 0.97.
After knock-down of SOX18, the screen gave TNF reporter robust z-score 0.09.
SOX18 gave TNF reporter robust z-score -0.17.
SOX18 showed TNF reporter robust z-score -0.97.
SOX18 showed TNF reporter robust z-score -0.69.
Depletion of DUOXA2 resulted in: TNF reporter robust z-score 2.68.
Against DUOXA2, the entry reads TNF reporter robust z-score -0.01.
Against DUOXA2 the deposit lists TNF reporter robust z-score 0.03.
Against DUOXA2, the entry reads TNF reporter robust z-score 1.17.
MCM6 scored TNF reporter robust z-score 1.81.
For MCM6, the entry reads TNF reporter robust z-score -0.4.
MCM6 showed TNF reporter robust z-score 0.14.
Depletion of MCM6 came out at: TNF reporter robust z-score -0.16.
Against RIPK3, the values are TNF reporter robust z-score 1.45.
Silencing of RIPK3 resulted in: TNF reporter robust z-score 3.06 (active).
Depletion of RIPK3 came out at: TNF reporter robust z-score 1.38.
Against RIPK3 the deposit lists TNF reporter robust z-score -0.62.
With knock-down of PCBD2, the record shows TNF reporter robust z-score 0.24.
PCBD2 showed TNF reporter robust z-score 1.14.
Against PCBD2, the entry reads TNF reporter robust z-score 3.02 (active).
With knock-down of PCBD2 the results were TNF reporter robust z-score 1.13.
Knock-down of TKTL1 came out at: TNF reporter robust z-score -0.64.
With knock-down of TKTL1 the results were TNF reporter robust z-score -0.12.
With knock-down of TKTL1, the screen gave TNF reporter robust z-score -0.8.
Against TKTL1, the entry reads TNF reporter robust z-score -0.48.

Entries listed so far whose gene name begins with F or f (4):
FAM199X: TNF reporter robust z-score = -0.86
FAM199X: TNF reporter robust z-score = -0.96
FAM199X: TNF reporter robust z-score = -0.85
FAM199X: TNF reporter robust z-score = -1.16
